According to doi:10.1101/2025.04.27.650876:

What was measured:
[1] = molecular target: T1, Developmental Pluripotency Associated 4 (DPPA4), endogenous (human (endogenous in NCI-H661)) (UniProt Q7L190); experiment: affinity purification with mass spectrometry
T1 sequence: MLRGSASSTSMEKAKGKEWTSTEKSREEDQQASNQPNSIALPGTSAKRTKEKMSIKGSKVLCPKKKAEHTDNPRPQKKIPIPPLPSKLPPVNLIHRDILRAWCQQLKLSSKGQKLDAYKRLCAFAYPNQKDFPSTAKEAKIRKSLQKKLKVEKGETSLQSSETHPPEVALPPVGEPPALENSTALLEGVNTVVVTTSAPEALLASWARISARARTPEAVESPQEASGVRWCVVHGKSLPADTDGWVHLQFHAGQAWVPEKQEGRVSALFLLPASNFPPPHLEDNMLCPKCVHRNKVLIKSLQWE

[2] = molecular target: T2, Developmental Pluripotency Associated 2 (DPPA2), endogenous (human (endogenous in NCI-H661)) (UniProt Q7Z7J5); experiment: affinity purification with mass spectrometry
T2 sequence: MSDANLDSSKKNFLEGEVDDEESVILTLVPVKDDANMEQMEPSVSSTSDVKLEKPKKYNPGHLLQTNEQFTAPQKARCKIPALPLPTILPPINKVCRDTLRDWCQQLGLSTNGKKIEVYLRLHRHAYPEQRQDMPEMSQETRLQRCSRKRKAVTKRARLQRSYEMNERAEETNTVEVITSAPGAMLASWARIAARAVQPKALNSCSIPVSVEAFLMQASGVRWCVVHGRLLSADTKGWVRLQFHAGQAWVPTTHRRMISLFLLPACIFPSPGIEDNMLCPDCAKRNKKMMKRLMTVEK

Binder | binding [1] | binding [2]
Developmental Pluripotency Associated 2 (DPPA2), endogenous (protein, UniProt Q7Z7J5 1-298) MSDANLDSSKKNFLEGEVDDEESVILTLVPVKDDANMEQMEPSVSSTSDVKLEKPKKYNPGHLLQTNEQFTAPQKARCKIPALPLPTILPPINKVCRDTLRDWCQQLGLSTNGKKIEVYLRLHRHAYPEQRQDMPEMSQETRLQRCSRKRKAVTKRARLQRSYEMNERAEETNTVEVITSAPGAMLASWARIAARAVQPKALNSCSIPVSVEAFLMQASGVRWCVVHGRLLSADTKGWVRLQFHAGQAWVPTTHRRMISLFLLPACIFPSPGIEDNMLCPDCAKRNKKMMKRLMTVEK | binds | –
Developmental Pluripotency Associated 4 (DPPA4), endogenous (protein, UniProt Q7L190 1-304) MLRGSASSTSMEKAKGKEWTSTEKSREEDQQASNQPNSIALPGTSAKRTKEKMSIKGSKVLCPKKKAEHTDNPRPQKKIPIPPLPSKLPPVNLIHRDILRAWCQQLKLSSKGQKLDAYKRLCAFAYPNQKDFPSTAKEAKIRKSLQKKLKVEKGETSLQSSETHPPEVALPPVGEPPALENSTALLEGVNTVVVTTSAPEALLASWARISARARTPEAVESPQEASGVRWCVVHGKSLPADTDGWVHLQFHAGQAWVPEKQEGRVSALFLLPASNFPPPHLEDNMLCPKCVHRNKVLIKSLQWE | – | binds

Results are given in words; binding and its absence hold for the method and conditions named. Binding seen in cells or lysates may run through a third protein. These calls come from enrichment with a bait or labelling near it, and not all partners need be listed.
